Taken from: PubChem BioAssay AID1224828 (NIAID, 2016)
The deposit covers about 17,000 reagents; shown is a part drawn at random. 762 of all reagents (4.5%) count as active. 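Active calls include both raised and lowered p65 entry, mostly lowered; wells with fewer than 50 cells lack a z-score.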 The raw values are shown without normalisation. Unmarked entries are inactive. The numbers tell different reagents against one gene apart.

Assay: 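Regulators linking TLR4 signalling to p65 nuclear translocation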 (primary screen)
System: mouse RAW264.7 G9 macrophage reporter cells (GFP-p65, Tnf promoter-mCherry)
Knock-down reagent: siRNA pool against mouse genes, 100 nM
Time to read-out: 2 days siRNA transfection, then 40 min LPS before fixation
Treatment: LPS (Salmonella minnesota R595) at 10 ng/ml
Detection: 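Imaged p65 nuclear translocation ratio, normalised to the plate median, converted to robust z-scores and averaged across two replicates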
Direction: p65 translocation robust z-score: higher = more nuclear NF-kappaB p65 after LPS than the plate median; nuclear/cytoplasmic p65 ratio: higher = more nuclear NF-kappaB p65
Hit rule: 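Called active when z exceeds 3.3 or falls under -1.56 (median of Tlr4 controls), giving activity score of at least 50; no calls for control wells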
Calls: active = hit (p65 shift raised or lowered); inactive = no clear change

Gene | reagent no. | p65 translocation robust z-score | nuclear/cytoplasmic p65 ratio, rep 1 | nuclear/cytoplasmic p65 ratio, rep 2 | low cell count flag
Chlsn (cholesin) | 1 | – | 1.23 | 1.57 | fewer than 50 cells per well; well left out of scoring
E230012M21 | 1 | 0.46 | 1.57 | 1.38 | enough cells to score
Or2a25 (olfactory receptor family 2 subfamily A member 25) | 1 | -0.42 | 1.34 | 1.26 | enough cells to score
Tpmt (thiopurine methyltransferase) | 1 | 1.3 | 1.58 | 1.79 | enough cells to score
Cypt4 (cysteine-rich perinuclear theca 4) | 1 | 0.14 | 1.41 | 1.53 | enough cells to score
Or4d6 (olfactory receptor family 4 subfamily D member 6) | 1 | -1.13 | 1.47 | 1.24 | enough cells to score
Skic2 (SKI2 subunit of superkiller complex) | 1 | -0.66 | 1.34 | 1.18 | enough cells to score
Pcdhga2 (protocadherin gamma subfamily A, 2) | 1 | 1.49 | 1.63 | 1.43 | enough cells to score
Hnrnph1 (heterogeneous nuclear ribonucleoprotein H1) | 1 | – | 1.27 | 1.11 | fewer than 50 cells per well; well left out of scoring
Zfp946 (zinc finger protein 946) | 1 | -1.42 | 1.3 | 1.15 | enough cells to score
Rab11fip3 (RAB11 family interacting protein 3 (class II)) | 1 | -0.96 | 1.41 | 1.65 | enough cells to score
Kbtbd12 (kelch repeat and BTB (POZ) domain containing 12) | 1 | -0.43 | 1.25 | 1.21 | enough cells to score
Mycs (myc-like oncogene, s-myc protein) | 1 | 0.55 | 1.86 | 1.68 | enough cells to score
Or2aa1 (olfactory receptor family 2 subfamily AA member 1) | 1 | – | 1.17 | 1.03 | fewer than 50 cells per well; well left out of scoring
Or51a43 (olfactory receptor family 51 subfamily A member 43) | 1 | 0.47 | 1.45 | 1.32 | enough cells to score
Nacc1 | 1 | -0.07 | 1.61 | 1.59 | enough cells to score
Crybb2 (crystallin, beta B2) | 1 | -1.4 | 1.27 | 1.21 | enough cells to score
Tnfaip8l1 (tumor necrosis factor, alpha-induced protein 8-like 1) | 1 | -0.71 | 1.29 | 1.38 | enough cells to score
Psg28 (pregnancy-specific beta-1-glycoprotein 28) | 1 | 0.88 | 1.5 | 1.31 | enough cells to score
Adam4 (a disintegrin and metallopeptidase domain 4) | 1 | 1.52 | 1.68 | 2.08 | enough cells to score
Hus1 (HUS1 checkpoint clamp component) | 1 | -1.12 | 1.2 | 1.25 | enough cells to score
Ndufb11 (NADH:ubiquinone oxidoreductase subunit B11) | 1 | 0.44 | 1.83 | 1.55 | enough cells to score
Etfrf1 (electron transfer flavoprotein regulatory factor 1) | 1 | -0.18 | 1.27 | 1.25 | enough cells to score
Ivl (involucrin) | 1 | 0.98 | 1.63 | 1.62 | enough cells to score
Antkmt (adenine nucleotide translocase lysine methyltransferase) | 1 | 0.51 | 1.68 | 1.89 | enough cells to score
Hspbap1 (Hspb associated protein 1) | 1 | 1.59 | 1.83 | 1.59 | enough cells to score
Wdr18 (WD repeat domain 18) | 1 | 1.57 | 1.53 | 1.5 | enough cells to score
Crbn (cereblon) | 1 | -0.12 | 1.64 | 1.67 | enough cells to score
Krtcap2 (keratinocyte associated protein 2) | 1 | 2.73 | 1.9 | 1.83 | enough cells to score
Ahsa2 (AHA1, activator of heat shock protein ATPase 2) | 1 | 0.77 | 1.55 | 1.52 | enough cells to score
Zmynd11 (zinc finger, MYND domain containing 11) | 1 | -0.93 | 1.5 | 1.35 | enough cells to score
Calb2 (calbindin 2) | 1 | -0.84 | 1.46 | 1.66 | enough cells to score
Ddx28 (DEAD box helicase 28) | 1 | -2.11 (active) | 1.17 | 1.27 | enough cells to score
Fpr-rs7 (formyl peptide receptor, related sequence 7) | 1 | -0.58 | 1.64 | 1.26 | enough cells to score
Ofcc1 (orofacial cleft 1 candidate 1) | 1 | 0.52 | 1.78 | 1.61 | enough cells to score
Col13a1 (collagen, type XIII, alpha 1) | 1 | 0.16 | 1.55 | 1.86 | enough cells to score
Vmn2r129 (vomeronasal 2, receptor 129) | 1 | – | 1.43 | 1.23 | fewer than 50 cells per well; well left out of scoring
Vmn2r129 (vomeronasal 2, receptor 129) | 2 | -0.02 | 1.43 | 1.19 | enough cells to score
Ctrl (chymotrypsin-like) | 1 | -0.77 | 1.44 | 1.23 | enough cells to score
Fhl5 (four and a half LIM domains 5) | 1 | -0.07 | 1.38 | 1.41 | enough cells to score
Prss33 (serine protease 33) | 1 | – | 1.24 | 1.08 | fewer than 50 cells per well; well left out of scoring
Sspo (SCO-spondin) | 1 | 1.03 | 1.53 | 1.35 | enough cells to score
Rnf212 (ring finger protein 212) | 1 | 0.08 | 1.58 | 1.5 | enough cells to score
Cbx8 (chromobox 8) | 1 | -0.93 | 1.42 | 1.26 | enough cells to score
Nid1 (nidogen 1) | 1 | 0.43 | 1.54 | 1.44 | enough cells to score
Acsf2 (acyl-CoA synthetase family member 2) | 1 | -1.17 | 1.46 | 1.58 | enough cells to score
Gtf2i (general transcription factor II I) | 1 | 1.14 | 1.9 | 1.54 | enough cells to score
Or5p1 (olfactory receptor family 5 subfamily P member 1) | 1 | 0.39 | 1.5 | 1.29 | enough cells to score
Sowahc (sosondowah ankyrin repeat domain family member C) | 1 | 0.97 | 1.29 | 1.37 | enough cells to score
Ppp1r16a (protein phosphatase 1, regulatory subunit 16A) | 1 | 0.36 | 1.61 | 1.4 | enough cells to score
Oasl2 (2'-5' oligoadenylate synthetase-like 2) | 1 | -0.28 | 1.65 | 1.51 | enough cells to score
Ackr3 (atypical chemokine receptor 3) | 1 | 0.46 | 1.48 | 1.44 | enough cells to score
Eif3j1 (eukaryotic translation initiation factor 3, subunit J1) | 1 | -1.13 | 1.39 | 1.15 | enough cells to score
Poldip3 (polymerase (DNA-directed), delta interacting protein 3) | 1 | -0.72 | 1.29 | 1.13 | enough cells to score
Dbpht2 (DNA binding protein with his-thr domain) | 1 | -0.97 | 1.36 | 1.48 | enough cells to score
Slc16a14 | 1 | 2.26 | 1.69 | 1.53 | enough cells to score
H2-Q8 (histocompatibility 2, Q region locus 8) | 1 | 0.87 | 1.67 | 1.68 | enough cells to score
Ifit1bl2 | 1 | -0.07 | 1.56 | 1.64 | enough cells to score
Mrpl10 (mitochondrial ribosomal protein L10) | 1 | 0.07 | 1.81 | 1.65 | enough cells to score

6 entries from above, showing only “low cell count flag”:
Nacc1: enough cells to score
Crybb2 (crystallin, beta B2): enough cells to score
Tnfaip8l1 (tumor necrosis factor, alpha-induced protein 8-like 1): enough cells to score
Psg28 (pregnancy-specific beta-1-glycoprotein 28): enough cells to score
Adam4 (a disintegrin and metallopeptidase domain 4): enough cells to score
Hus1 (HUS1 checkpoint clamp component): enough cells to score
